The values below come from paper PMC4515320.

By UniProt entry, the sequences of proteins in these tests, tags left out.
UniProt P06240: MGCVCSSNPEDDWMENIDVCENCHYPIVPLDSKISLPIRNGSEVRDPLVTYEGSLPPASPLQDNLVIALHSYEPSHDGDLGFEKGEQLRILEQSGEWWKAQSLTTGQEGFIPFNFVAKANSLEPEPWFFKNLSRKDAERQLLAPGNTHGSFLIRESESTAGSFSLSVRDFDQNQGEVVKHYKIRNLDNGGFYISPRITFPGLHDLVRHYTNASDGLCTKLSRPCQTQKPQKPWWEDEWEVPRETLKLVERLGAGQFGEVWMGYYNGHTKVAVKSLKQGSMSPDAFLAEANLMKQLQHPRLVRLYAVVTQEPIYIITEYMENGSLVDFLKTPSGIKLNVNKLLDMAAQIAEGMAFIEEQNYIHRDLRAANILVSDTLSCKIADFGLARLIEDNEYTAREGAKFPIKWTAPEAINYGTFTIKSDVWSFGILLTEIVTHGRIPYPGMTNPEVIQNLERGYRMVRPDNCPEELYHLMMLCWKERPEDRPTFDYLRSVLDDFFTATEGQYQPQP

The test has as its target T1, CR6-interacting factor 1 (CRIF1), mouse (mouse (endogenous in LSTRA)) (UniProt Q9CR59).
T1 sequence: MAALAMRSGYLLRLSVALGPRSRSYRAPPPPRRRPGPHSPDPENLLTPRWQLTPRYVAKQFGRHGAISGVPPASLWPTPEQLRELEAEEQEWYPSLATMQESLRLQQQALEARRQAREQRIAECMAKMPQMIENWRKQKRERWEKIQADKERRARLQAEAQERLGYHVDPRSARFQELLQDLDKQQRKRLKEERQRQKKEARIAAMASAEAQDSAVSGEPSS
Description: co-IP; LSTRA whole cell lysate immunoprecipitated with anti-CRIF1 antibody or control IgG; Lck and CRIF1 immunoblotting.

No constants are given. Whether binding was seen depends on the method and setting. Binding seen in cells or lysates may run through a third protein. Some binding calls cover weakened binding; strength is not graded here.

As for “Lymphocyte-specific protein tyrosine kinase (Lck), mouse (from UniProt P06240 1-509) (enzyme)”, the binding result was “binds”.
